Laboratory results taken from patent publication US20250171562A1.
These are yes or no findings as the source states them, for the method shown. Some results given as binding are weak or reduced against the parent protein; the word gives no strength.

The chains behind the UniProt entries cited, without tags or fusion partners. Where a name states a change or a piece, a line headed by the entry shows the natural chain unless it says otherwise. A line that says so, or that is headed by a name, gives the form on record, which may keep a tag or linker.
biotinylated IgE Fc (P01854, form named): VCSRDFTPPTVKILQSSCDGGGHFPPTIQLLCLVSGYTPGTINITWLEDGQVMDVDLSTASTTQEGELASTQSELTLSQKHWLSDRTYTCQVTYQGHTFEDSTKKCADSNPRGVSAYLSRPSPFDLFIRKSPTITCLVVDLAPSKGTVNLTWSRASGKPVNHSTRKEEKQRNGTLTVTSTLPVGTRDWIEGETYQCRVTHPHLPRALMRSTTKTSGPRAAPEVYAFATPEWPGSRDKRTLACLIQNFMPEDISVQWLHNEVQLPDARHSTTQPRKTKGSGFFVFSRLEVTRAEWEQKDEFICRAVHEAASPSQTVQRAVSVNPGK

Target: biotinylated IgE Fc (UniProt P01854)
Assay: as described for the monomers (ELISA)

B1: sdAb A2 (VHH)
VHH: EVQLLESGGGLVQPGGSLRLSCAASGFRFGNYDMAWVRQAPGKRYEWVSSIDTGGDITHYADSVKGRFTISRDNAKNTLYLQMNSLRPEDTAEYWCATDEEYALGPNEFDYYGQGTLVTVS
Question: With B1 as the binder, how does the binding read?
Answer: binds
